## Percent effect of library compounds

Amino acid sequences for entries named in this document (tags omitted). Residues count along the entry.
UniProt I6X8D2, whole entry: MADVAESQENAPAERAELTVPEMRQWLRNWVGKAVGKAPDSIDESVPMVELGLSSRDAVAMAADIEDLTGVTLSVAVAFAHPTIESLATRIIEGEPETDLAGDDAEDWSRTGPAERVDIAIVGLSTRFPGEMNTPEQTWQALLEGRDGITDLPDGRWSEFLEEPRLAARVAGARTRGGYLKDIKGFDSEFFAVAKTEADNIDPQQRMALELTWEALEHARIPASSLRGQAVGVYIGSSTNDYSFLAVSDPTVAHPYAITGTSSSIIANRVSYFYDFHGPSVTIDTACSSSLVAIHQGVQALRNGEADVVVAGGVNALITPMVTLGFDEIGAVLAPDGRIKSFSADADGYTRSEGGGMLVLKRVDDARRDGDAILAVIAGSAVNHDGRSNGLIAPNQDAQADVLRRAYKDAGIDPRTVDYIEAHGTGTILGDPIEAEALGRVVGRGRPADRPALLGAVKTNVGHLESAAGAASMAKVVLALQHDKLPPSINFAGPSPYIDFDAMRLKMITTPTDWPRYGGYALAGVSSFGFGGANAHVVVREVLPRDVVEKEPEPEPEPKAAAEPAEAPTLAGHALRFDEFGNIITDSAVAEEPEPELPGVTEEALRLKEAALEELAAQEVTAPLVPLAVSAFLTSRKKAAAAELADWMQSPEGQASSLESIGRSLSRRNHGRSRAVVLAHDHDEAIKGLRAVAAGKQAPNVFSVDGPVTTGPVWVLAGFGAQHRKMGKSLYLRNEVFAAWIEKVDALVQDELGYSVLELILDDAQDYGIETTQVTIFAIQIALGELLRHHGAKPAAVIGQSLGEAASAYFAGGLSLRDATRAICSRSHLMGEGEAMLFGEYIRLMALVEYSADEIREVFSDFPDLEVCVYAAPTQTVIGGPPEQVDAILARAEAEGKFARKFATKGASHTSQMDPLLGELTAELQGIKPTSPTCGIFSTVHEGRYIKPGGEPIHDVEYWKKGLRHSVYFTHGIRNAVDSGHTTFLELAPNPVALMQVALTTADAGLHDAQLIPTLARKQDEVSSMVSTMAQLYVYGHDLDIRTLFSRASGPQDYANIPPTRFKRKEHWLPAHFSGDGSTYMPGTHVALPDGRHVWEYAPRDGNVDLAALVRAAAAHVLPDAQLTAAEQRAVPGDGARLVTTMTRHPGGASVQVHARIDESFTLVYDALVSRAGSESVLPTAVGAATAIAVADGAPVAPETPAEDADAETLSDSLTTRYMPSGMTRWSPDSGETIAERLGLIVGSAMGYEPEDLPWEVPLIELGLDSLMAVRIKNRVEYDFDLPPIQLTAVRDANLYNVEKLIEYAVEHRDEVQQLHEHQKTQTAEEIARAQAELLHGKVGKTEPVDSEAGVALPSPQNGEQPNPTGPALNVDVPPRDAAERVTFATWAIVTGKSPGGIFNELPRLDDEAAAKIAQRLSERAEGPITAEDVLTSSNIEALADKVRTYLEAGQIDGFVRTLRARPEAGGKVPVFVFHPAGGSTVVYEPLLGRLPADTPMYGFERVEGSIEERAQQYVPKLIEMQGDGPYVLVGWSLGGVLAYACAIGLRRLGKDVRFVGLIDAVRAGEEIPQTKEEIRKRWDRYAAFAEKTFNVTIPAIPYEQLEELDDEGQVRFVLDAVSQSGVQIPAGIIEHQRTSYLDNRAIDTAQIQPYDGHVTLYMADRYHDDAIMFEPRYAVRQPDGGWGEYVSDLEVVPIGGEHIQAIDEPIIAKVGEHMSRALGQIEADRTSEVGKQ
UniProt A4I591, 1-473: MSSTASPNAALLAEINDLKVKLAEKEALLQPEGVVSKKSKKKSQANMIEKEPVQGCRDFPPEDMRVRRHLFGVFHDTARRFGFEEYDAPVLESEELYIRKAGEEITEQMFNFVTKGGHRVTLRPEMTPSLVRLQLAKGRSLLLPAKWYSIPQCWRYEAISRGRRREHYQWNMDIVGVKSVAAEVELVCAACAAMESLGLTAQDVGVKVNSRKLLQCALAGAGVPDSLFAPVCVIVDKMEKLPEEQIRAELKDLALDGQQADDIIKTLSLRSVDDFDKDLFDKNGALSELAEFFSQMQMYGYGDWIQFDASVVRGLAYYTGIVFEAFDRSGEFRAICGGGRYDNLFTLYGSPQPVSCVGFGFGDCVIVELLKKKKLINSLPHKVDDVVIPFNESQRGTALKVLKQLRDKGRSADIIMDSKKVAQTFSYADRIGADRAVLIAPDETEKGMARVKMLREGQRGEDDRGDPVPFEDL
UniProt P9WNZ1, whole entry: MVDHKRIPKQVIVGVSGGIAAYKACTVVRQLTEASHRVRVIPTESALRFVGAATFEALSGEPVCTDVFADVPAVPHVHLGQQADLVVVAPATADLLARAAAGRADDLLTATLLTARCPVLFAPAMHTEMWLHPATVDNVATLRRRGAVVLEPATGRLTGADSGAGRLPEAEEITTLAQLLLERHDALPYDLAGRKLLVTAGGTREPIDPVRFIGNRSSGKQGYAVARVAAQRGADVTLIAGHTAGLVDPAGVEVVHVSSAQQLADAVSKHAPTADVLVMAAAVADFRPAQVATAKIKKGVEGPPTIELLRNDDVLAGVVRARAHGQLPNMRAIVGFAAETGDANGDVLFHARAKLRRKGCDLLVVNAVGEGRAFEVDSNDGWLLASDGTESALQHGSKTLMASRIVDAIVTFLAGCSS

From ChEMBL document CHEMBL3988442, “University of Dundee, Small-Polar-MMV Screening Library” (2021).

A: 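Polyketide synthase Pks13, Mycobacterium tuberculosis (UniProt I6X8D2). Enzyme assay of the thioesterase domain of polyketide synthase 13; the read-out is not stated. Compounds at 30 µM. The record gives no direction; the compounds picked for IC50 retests had high values, so higher reads as stronger inhibition. About 67,000 compounds were tested under these conditions; 0.46% (about 300) showed 50% or more at least once.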
B: 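Enzyme assay of histidyl-tRNA synthetase; the read-out is not stated. Target: Histidine-tRNA ligase, Leishmania infantum (UniProt A4I591). Tested at 30 µM. Higher reads as stronger inhibition (inferred: compounds with an IC50 in retests scored well above the rest). The assay is labelled LdHisRS but filed under L. infantum. Size under these conditions: about 69,000 compounds, about 410 of them at 50% or above in at least one test.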
C: 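Enzyme assay of CoaBC with a phosphate dye (Biomol Green) read at 650 nm. Target: Coenzyme A biosynthesis protein CoaBC, Mycobacterium tuberculosis (UniProt P9WNZ1). Tested at 30 µM. Higher reads as stronger inhibition, judged from the few compounds that gave an IC50. Most strong results did not repeat in a second test. About 67,000 compounds were tested under these conditions; 0.06% (about 40) showed 50% or more at least once.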

Each number is a percent effect as filed. How 0% and 100% were set is not recorded. Most values in the screen are low, and negative values occur. Compounds were drawn at random from those tested, without regard to their results.

For COCCN1CCC2(CC1)CN(C(=O)c1ccco1)CCO2 the result was A: -43.89%; B: 7.692%; C: 0.6435%. Cc1ccccc1[C@@H]1CN(C(=O)c2ccc3[nH]nnc3c2)C[C@H]1C(=O)O read A: -57.12%; B: 3.81%; C: 10.11%. Cc1ccnc(NC(=O)C(C)Cn2cncn2)c1 (stereo not shown) read A: -3.619%; B: 3.279%; C: 4.904%. With CC(C)OC(=O)NCc1ccc(NCc2cnn(C(C)(C)C)c2)cc1 the screen gave A: -5.456%; B: 10.2%; C: 9.752%. CC(C)(C)NC(=O)COc1ccc(CNCc2ccccn2)cc1 gave A: -30.9%; B: 12.5%; C: 7.746%. CCCn1cnc2c1CN(S(=O)(=O)Cc1ccccc1)[C@H](C(=O)OC)C2 gave A: 8.186%; B: 18.92%; C: -9.627%. O=C(c1csc2nc(-c3ccc(Cl)cc3)cn12)N1CCCC(CO)C1 (stereo not shown) gave A: 4.56%; B: 34.15%; C: -5.725%. CCO[C@H]1CO[C@@]2(CCCN(Cc3scnc3C)C2)C1 gave A: -6.559%; B: 11.7%; C: -0.4847%.

With CC(C)n1c(C2CCCN(CC(=O)NC3CC3)C2)nc2ccccc21 (stereo not shown) the screen gave A: -1.566%; B: 15.15%; C: -0.6048%. Result for CCN(Cc1ccccc1)C(=O)CN1CCOC(Cn2cncn2)C1 (stereo not shown) was A: -3.293%; B: 8.475%; C: 1.575%. Cn1c(C(=O)N2CCc3[nH]cnc3C2C(=O)O)ccc1-c1ccccc1 (stereo not shown) read A: -6.592%; B: 6.25%; C: 2.571%. For Cc1csc(Nc2nccnc2C2CCCN2CC(N)=O)n1 (stereo not shown) the result was A: -13.25%; B: 7.246%; C: -0.9709%. With CCN1C(=O)CC[C@@H]2[C@H]1CCN2S(=O)(=O)Cc1ccc(C)cc1 the screen gave A: 0.4859%; B: 8.065%; C: 2.836%. Cn1c(CN2CCC(O)CC2)nnc1C1CCCN(c2ccncc2)C1 (stereo not shown) gave A: -45.62%; B: 11.48%; C: 10.73%. With O=C(c1ccc(F)cc1Cl)N1CCC(Nc2cccnn2)CC1 the screen gave A: -9.9%; B: 18.75%; C: 5.007%. c1cncc(CN2CCn3cc(Cn4cccn4)nc3C2)c1 read A: 4.923%; B: 0%; C: 2.757%.

Result for COC(=O)CC(NC(=O)c1cc(OC)c2c(c1)OCCO2)c1cccs1 (stereo not shown) was A: -7.886%; B: 24.32%; C: 6.226%. For Cc1cc(O)ccc1-c1cc(-c2cnn(C)c2C2CC2)c(C#N)c(N)n1 the result was A: -89.04%; B: 29.11%; C: 3.422%. COc1ccc2c(C)c(C(=O)NCC3CN(S(C)(=O)=O)CCO3)oc2c1 (stereo not shown) gave A: 11.65%; B: 15.62%; C: 4.121%. For Cc1ccc([C@@H]2CN(S(=O)(=O)c3cccs3)C[C@H]2N(C)C)cc1 the result was A: -29.66%; B: 32.08%; C: -7.93%. For O=C(NCCN1CCOCC1)N1CCN(c2ccccc2)CC1 the result was A: 2.948%; B: 25%; C: 11.11%. With Cc1nc2[nH]cnc(NCCCN3CCOCC3)c-2n1 the screen gave A: -13.54%; B: 20.88%; C: -0.241%. Cc1noc(CCNC(=O)C2CSCN2C(=O)C2CCCC2)n1 (stereo not shown) gave A: -7.594%; B: 8.889%; C: -3.163%. For c1ccc(Cc2nc(CNC3CCOC4(CCOCC4)C3)no2)cc1 (stereo not shown) the result was A: -25.59%; B: 12.05%; C: 7.767%.

For CC(O)CN1CCN(C(=O)CN(C)c2cnccn2)CC1 (stereo not shown) the result was A: 45.71%; B: 9.615%; C: 1.066%. Nc1cc(CCCNC(=O)NC2CCCC2)nn1-c1ccccc1 gave A: 23.96%; B: 19.75%; C: -0.3841%. CC(C)Nc1cccc(CC2CCN(S(C)(=O)=O)CC2)n1 gave A: -18.82%; B: -2.069%; C: -1.854%. Cc1nc(C(C)C)sc1C(=O)NCCNc1ncccn1 read A: -10.1%; B: 14.91%; C: 1.956%. With COc1cc(Cl)c(NCc2c(C)noc2C)cc1OC the screen gave A: 2.855%; B: 34.38%; C: 4.018%. For O=C(NCCCc1cccs1)N1CCCCC1CCO (stereo not shown) the result was A: -16.18%; B: 7.5%. CCc1ccsc1C(=O)NC(C#N)CC (stereo not shown) read A: -7.118%; B: 10.59%; C: 8.738%. O=C(CCOc1ccccc1F)NC1CCCN(c2ccccn2)C1 (stereo not shown) gave A: 13.4%; B: 18.84%; C: 0.2628%.

Result for c1ccc(NCc2cn3c(n2)CN(Cc2cccs2)CC3)nc1 was A: -19.2%; B: 38.89%; C: -6.452%. O=C(NC1CC1)[C@H]1C[C@H]2OCC[C@H]2N(Cc2ccco2)C1 gave A: -27.37%; B: 13.89%; C: 6.129%. For O=C(CCc1ccccc1Br)NCC(=O)NCc1ccccc1 the result was A: -34.79%; B: 24.24%; C: 4.142%. Result for CC(=O)N1CC[C@@]2(O)CCCC[C@H]2[C@@H]1c1ccc2c(c1)OCO2 was A: -3.859%; B: 1.099%; C: -2.41%.

3 of the entries, repeated:

- CC(C)(C)NC(=O)COc1ccc(CNCc2ccccn2)cc1 | A: -30.9%; B: 12.5%; C: 7.746%
- COc1cc(Cl)c(NCc2c(C)noc2C)cc1OC | A: 2.855%; B: 34.38%; C: 4.018%
- COc1ccc2c(C)c(C(=O)NCC3CN(S(C)(=O)=O)CCO3)oc2c1 (stereo not shown) | A: 11.65%; B: 15.62%; C: 4.121%